In article PMC4102417 (PLoS Neglected Tropical Diseases, 2014):
Counter-ions that a name gives are not always drawn.

Assays:
[1] = in vitro; format: cell-based, murine; details: mouse, 3T3 fibroblasts, separate assays separated by semicolons, read-out: Mammalian cell CC50
[2] = system: 3T3 fibroblast cells; assay: in vitro; format: cell-based, murine; details: 3T3 fibroblasts, 72 hours; separate assays separated by semicolons; read-out: Mammalian cell CC50

`CCCCc1oc2ccccc2c1C(=O)c1cc(I)c(OCCN(CC)CC)c(I)c1` [Amiodarone, (2-{4-[(2-butyl-1-benzofuran-3-yl)carbonyl]-2,6-diiodophenoxy}ethyl)diethylamine hydrochloride] gave a CC50 at 72 h [1] of 12.6 µM and a CC50 [2] of 16.4 µM.
